Experimental data reported in patent US11173446B2, “Process for removal of acid gases from a fluid stream” (BASF SE, priority 2017, dated 2021).

Experiment: Relative CO2 absorption rates in a twin stirred cell (Example 6)
Type: physicochemical
Conditions: aqueous solution with 5 wt.-% piperazine and 30 wt.-% amine; 50° C.

## CC(C)(C)NCC(O)CO (centres unmarked) [TBAPD, 3-(tert-butylamino)propane-1,2-diol]
  absorption rate, comparison in words: significantly higher than that of the solutions comprising MDEA and DMAPD
  maximum loading, comparison in words: higher than that of the solutions comprising MDEA and DMAPD
